Experimental data: PubChem BioAssay AID686943 (Drosophila RNAi Screening Center, 2013)

- Purpose: 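Knockdowns that increase or decrease active ERK after insulin receptor stimulation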 (primary screen)
- System: Drosophila S2R+ haemocyte-like cells expressing YFP-tagged ERK (Rolled)
- Knock-down reagent: long dsRNA against Drosophila genes
- Conditions: insulin stimulation versus unstimulated cells; dose and duration not given
- Read-out: 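Per-plate z-scores of phospho-ERK immunostaining normalised to YFP-tagged ERK, measured with and without insulin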
- Reading the numbers: replicate 1, z-score of dpERK with insulin: higher = more active ERK per ERK-YFP after insulin
In all, the deposit lists about 23,000 reagents; shown is a random part of those with a known target gene and a result. 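Extra replicates exist only for a retested subset of genes; insulin dose and duration not given; both raised and lowered dpERK matter.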 A plus sign joins genes that one reagent is predicted to hit. Not all columns of the deposit are shown. No sequences are given here. The record does not give: the amount of reagent, the time to read-out.

{"Gene": "Sap130", "dsRNA": "DRSC09680", "replicate 1, z-score of dpERK with insulin": -0.01}
{"Gene": "CG14355", "dsRNA": "DRSC14818", "replicate 1, z-score of dpERK with insulin": -0.31}
{"Gene": "PIG-Wb", "dsRNA": "DRSC08526", "replicate 1, z-score of dpERK with insulin": -0.56}
{"Gene": "nito", "dsRNA": "DRSC05943", "replicate 1, z-score of dpERK with insulin": 0.75}
{"Gene": "CG31161", "dsRNA": "DRSC16144", "replicate 1, z-score of dpERK with insulin": -1}
{"Gene": "CG2614", "dsRNA": "DRSC02711", "replicate 1, z-score of dpERK with insulin": 0.74}
{"Gene": "CG2187", "dsRNA": "DRSC15425", "replicate 1, z-score of dpERK with insulin": 0.56}
{"Gene": "CG7024", "dsRNA": "DRSC18414", "replicate 1, z-score of dpERK with insulin": -0.89}
{"Gene": "Slbp", "dsRNA": "DRSC16863", "replicate 1, z-score of dpERK with insulin": 0.45}
{"Gene": "CG9547", "dsRNA": "DRSC03260", "replicate 1, z-score of dpERK with insulin": 0.3}
{"Gene": "CG31683 + CG18858", "dsRNA": "DRSC02703", "replicate 1, z-score of dpERK with insulin": 0.32}
{"Gene": "Ir7a", "dsRNA": "DRSC17866", "replicate 1, z-score of dpERK with insulin": -0.22}
{"Gene": "lsn", "dsRNA": "DRSC16081", "replicate 1, z-score of dpERK with insulin": -0.03}
{"Gene": "CG32305", "dsRNA": "DRSC08614", "replicate 1, z-score of dpERK with insulin": -0.92}
{"Gene": "RpS19b", "dsRNA": "DRSC15773", "replicate 1, z-score of dpERK with insulin": -0.41}
{"Gene": "Awh", "dsRNA": "DRSC08140", "replicate 1, z-score of dpERK with insulin": 0.85}
{"Gene": "nub", "dsRNA": "DRSC01260", "replicate 1, z-score of dpERK with insulin": 1.15}
{"Gene": "nub", "dsRNA": "DRSC02498", "replicate 1, z-score of dpERK with insulin": 0.27}
{"Gene": "nub", "dsRNA": "DRSC02499", "replicate 1, z-score of dpERK with insulin": 0.23}
{"Gene": "nub", "dsRNA": "DRSC03583", "replicate 1, z-score of dpERK with insulin": 0.19}
{"Gene": "CG13946", "dsRNA": "DRSC00364", "replicate 1, z-score of dpERK with insulin": -0.02}
